For the experiment, the system named is Mus musculus. The experiment in a line: Analgesic agonist activity in acetic acid induced mouse writhing assay, subcutaneous administration. Format: functional. Particulars: sc. A digest of the protocol: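 Test agents given as solutions: salts in distilled water; free bases dissolved by adding 1 N HCl, then further diluted.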
(An intraperitoneal irritant provokes the stretching counted in writhing tests.)

The source of these data is ChEMBL document CHEMBL1121639, “Analgesic narcotic antagonists. 5. 7,7-Dimethyldihydrocodeinones and 7,7-dimethyldihydromorphinones” (1981).

By ED50 is commonly meant the dose that gives a 50% effect, or the effect in half of the subjects. Lower therefore signals an effect at a small dose. For the molecule `CN1CC[C@]23c4c5ccc(O)c4O[C@H]2[C@@H](O)C=C[C@H]3[C@H]1C5` [MORPHINE], the ED50 is 2.1 µmol/kg.
